For 1 compound, IC50 results are on record in ChEMBL document CHEMBL2146411, “Discovery of 3H-imidazo[4,5-c]quinolin-4(5H)-ones as potent and selective dipeptidyl peptidase IV (DPP-4) inhibitors” (Bioorg Med Chem, 2012).

By UniProt entry, the sequences of proteins in these tests, tags left out. Where a name states a change or a piece, a line headed by the entry shows the natural chain unless it says otherwise.
UniProt Q12809: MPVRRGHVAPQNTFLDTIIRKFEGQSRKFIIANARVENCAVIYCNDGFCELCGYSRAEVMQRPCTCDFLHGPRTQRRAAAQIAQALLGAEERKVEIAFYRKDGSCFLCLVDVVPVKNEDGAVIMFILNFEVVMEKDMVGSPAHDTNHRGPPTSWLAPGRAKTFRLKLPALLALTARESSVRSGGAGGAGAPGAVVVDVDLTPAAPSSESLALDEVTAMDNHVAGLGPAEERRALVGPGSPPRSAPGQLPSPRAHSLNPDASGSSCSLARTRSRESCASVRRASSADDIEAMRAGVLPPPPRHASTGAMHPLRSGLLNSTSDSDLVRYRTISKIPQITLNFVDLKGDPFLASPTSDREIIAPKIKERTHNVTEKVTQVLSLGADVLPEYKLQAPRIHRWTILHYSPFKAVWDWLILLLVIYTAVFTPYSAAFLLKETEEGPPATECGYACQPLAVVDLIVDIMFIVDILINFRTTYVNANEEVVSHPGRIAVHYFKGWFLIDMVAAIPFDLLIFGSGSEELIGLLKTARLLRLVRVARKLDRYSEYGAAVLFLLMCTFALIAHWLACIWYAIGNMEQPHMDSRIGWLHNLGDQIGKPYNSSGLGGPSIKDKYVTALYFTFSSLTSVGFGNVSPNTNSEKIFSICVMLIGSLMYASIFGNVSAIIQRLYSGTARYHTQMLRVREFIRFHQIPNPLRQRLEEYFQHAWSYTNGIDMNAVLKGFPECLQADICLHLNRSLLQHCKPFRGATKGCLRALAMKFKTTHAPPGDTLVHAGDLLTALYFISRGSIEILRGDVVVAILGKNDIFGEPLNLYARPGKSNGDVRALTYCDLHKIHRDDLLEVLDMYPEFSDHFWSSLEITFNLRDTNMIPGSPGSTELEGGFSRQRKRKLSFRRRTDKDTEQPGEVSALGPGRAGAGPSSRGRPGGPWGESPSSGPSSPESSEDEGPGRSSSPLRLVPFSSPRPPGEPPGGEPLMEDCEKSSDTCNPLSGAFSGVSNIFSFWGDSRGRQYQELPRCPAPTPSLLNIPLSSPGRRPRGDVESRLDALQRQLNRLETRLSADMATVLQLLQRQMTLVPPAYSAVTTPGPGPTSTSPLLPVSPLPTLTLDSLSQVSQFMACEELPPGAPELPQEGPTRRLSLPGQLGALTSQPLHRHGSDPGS

In this test the target is Voltage-gated inwardly rectifying potassium channel KCNH2 (Homo sapiens, UniProt Q12809).

Usually IC50 stands for the concentration needed to halve the response being measured. The compound `COCc1ccc2c3nc(N4CCC[C@@H](N)C4)n(Cc4ccccc4Cl)c3c(=O)n(C)c2c1` registered an IC50 of 1810 nM.
